Percent effect of library compounds

Protein sequences, listed by entry. Tags and fused reporters are not part of them. Residues count along the entry.
UniProt Q4DA54, 1-478: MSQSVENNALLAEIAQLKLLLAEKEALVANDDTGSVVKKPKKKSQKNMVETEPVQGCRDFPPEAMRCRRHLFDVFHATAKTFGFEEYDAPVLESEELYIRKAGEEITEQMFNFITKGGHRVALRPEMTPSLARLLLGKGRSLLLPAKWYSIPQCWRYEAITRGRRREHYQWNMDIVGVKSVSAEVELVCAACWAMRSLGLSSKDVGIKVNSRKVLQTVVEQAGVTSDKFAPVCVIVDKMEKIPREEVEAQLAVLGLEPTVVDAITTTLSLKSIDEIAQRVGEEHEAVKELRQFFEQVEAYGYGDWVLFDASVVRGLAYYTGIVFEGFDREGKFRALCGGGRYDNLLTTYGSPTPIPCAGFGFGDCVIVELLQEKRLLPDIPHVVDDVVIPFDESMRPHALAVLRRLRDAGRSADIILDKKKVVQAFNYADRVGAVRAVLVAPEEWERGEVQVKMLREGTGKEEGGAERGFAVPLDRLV
UniProt A4I591, 1-473: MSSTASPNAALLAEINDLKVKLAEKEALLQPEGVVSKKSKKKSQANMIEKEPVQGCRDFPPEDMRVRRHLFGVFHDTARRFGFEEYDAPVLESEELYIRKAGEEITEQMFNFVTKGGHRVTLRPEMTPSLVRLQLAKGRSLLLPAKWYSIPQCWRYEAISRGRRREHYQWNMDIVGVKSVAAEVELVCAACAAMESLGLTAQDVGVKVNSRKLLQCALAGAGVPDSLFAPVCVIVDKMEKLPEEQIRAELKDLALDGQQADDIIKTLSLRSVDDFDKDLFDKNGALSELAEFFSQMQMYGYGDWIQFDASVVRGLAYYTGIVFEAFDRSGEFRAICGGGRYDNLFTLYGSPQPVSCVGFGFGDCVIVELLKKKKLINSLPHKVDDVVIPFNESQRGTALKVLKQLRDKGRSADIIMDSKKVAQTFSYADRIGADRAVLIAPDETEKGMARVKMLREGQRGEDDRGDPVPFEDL

The values are deposited in ChEMBL (CHEMBL3988442, “University of Dundee, Small-Polar-MMV Screening Library” (2021)).

A: 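Assay of Toxoplasma gondii numbers, read through their beta-galactosidase reporter with a colour substrate. Tested at 10 µM. Higher reads as fewer parasites (inferred from which compounds were picked for retests). Of about 67,000 compounds tested this way, about 260 (0.38%) reached 50% or more in at least one test.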
B: 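Histidine-tRNA ligase, Trypanosoma cruzi CL Brener (UniProt Q4DA54). Enzyme assay of histidyl-tRNA synthetase; the read-out is not stated. Concentration: 30 µM. Direction is inferred from retests: higher values go with stronger inhibition. Size under these conditions: about 69,000 compounds, about 31 of them at 50% or above in at least one test.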
C: 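Histidine-tRNA ligase, Leishmania infantum (UniProt A4I591). Enzyme assay of histidyl-tRNA synthetase; the read-out is not stated. Tested at 30 µM. Direction is inferred from retests: higher values go with stronger inhibition. The assay is labelled LdHisRS but filed under L. infantum. Size under these conditions: about 69,000 compounds, about 410 of them at 50% or above in at least one test.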
D: 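Whole-parasite assay of Trypanosoma brucei over 72 hours; the read-out is not stated. Tested at 30 µM. Higher reads as stronger inhibition (inferred: compounds with an IC50 in retests scored well above the rest). Values scatter widely below zero; nearly all retest evidence comes from the higher of the two concentrations used. Size under these conditions: about 64,000 compounds, about 940 of them at 50% or above in at least one test.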

Each number is a percent effect as filed. The controls that fix the scale are not given in the record; negative values are as filed. The compounds are a random part of those screened. A dash means the value is not listed here; it may have been measured.

* CN(C)C(=O)CN1C(=O)CCC12CCN(Cc1ccc(F)cc1)CC2.O=C(O)C(F)(F)F | A: 4.013%; D: -17.12%
* CCC(C(=O)NCc1cc(N2CCOCC2)ncn1)n1cccn1 (centres unmarked) | A: -26.15%; B: 10.31%; C: 11.43%; D: -58.33%
* Cc1nnc(NC(=O)NCc2ccc(F)cc2)s1 | A: -30.82%; B: 2.857%; C: 9.615%
* O=C(N[C@@H]1CN(Cc2ccsc2)[C@@H]2CCCO[C@@H]21)C1CC1 | B: 3.784%; C: 18.87%
* CC(C)N1CCCC(C(=O)NCCCc2cnn(C)c2)C1 (centres unmarked) | A: 0.8999%; B: -1.19%; C: -11.11%; D: -38.76%
* CSC(C)C(=O)N(C)CC(=O)Nc1ccc(Br)cn1 (centres unmarked) | A: -7.728%; B: 5.085%; C: 13.79%; D: -9.52%
* c1ccc2nc(N3CCOC(Cn4cccn4)C3)cnc2c1 (centres unmarked) | A: 3.521%; B: 5.714%; C: 10.17%
* Cc1ncncc1C(=O)N1CCCN(Cc2nccn2C(C)C)CC1 | A: 2.032%; B: 2.941%; C: 11.67%; D: -1.113%
* O=C(CCn1ncc2c(Cl)cccc21)NCCCn1cccn1 | A: 5.993%; B: 2.609%; C: 15.52%; D: -11.25%
* CCCn1cc(-c2cc(C(=O)N(C)C)c3ccc(C)cc3n2)cn1 | A: 1.273%; B: 5.025%; C: 3.529%; D: -14.07%
* O=C(O)C(F)(F)F.O=C(O)C(F)(F)F.[H][C@@]12CCN(Cc3ccncc3)C[C@@]1([H])O[C@@H](C(=O)NCCOC)C2 | A: 3.499%; D: -17.08%
* Cc1nc(NC(=O)OC(C)(C)C)sc1C(=O)O | A: -8.043%; B: 0.8403%; C: 14.04%; D: -18.01%
* CC(C)Nc1cc(N2CCC(n3cc(C4CC4)nn3)CC2)ncn1 | A: 29.95%; B: 6.061%; C: 3.191%; D: -25.72%
* CCC(CNC(=O)c1nc(=O)[nH][nH]1)Oc1cccc(C(F)(F)F)c1 (centres unmarked) | A: 6.165%; B: 9.836%; C: 13.7%; D: -25.99%
* COc1cc(N2CCC3(CC2)CCN(c2cccnc2)C3=O)ncn1.O=C(O)C(F)(F)F | A: -43.04%; D: -55.3%
* CN(CCc1cnn(C)c1)C(=O)C(c1ccccc1F)N(C)C (centres unmarked) | A: -4.255%; B: 5.319%; C: 7.463%; D: -24.04%
* Cc1cc(CN(C)Cc2ccccc2N2CCCCC2)n[nH]1 | A: 6.525%; B: 4.887%; C: 12.77%
* CCOC(=O)C1CCCCN1Cc1c[nH]nc1-c1ccc(F)cc1F (centres unmarked) | A: 5.692%; B: 4.04%; C: 3.279%; D: -2.201%
* Cc1cc(-n2c(C)cn(CN(C)Cc3ccccc3)c2=O)no1 | A: -41.9%; B: -9.375%; C: 6.25%
* C[S+]([O-])CCNC(=O)Nc1cc(F)ccc1-n1cccn1 (centres unmarked) | A: -6.679%; B: 6.349%; C: -2.74%; D: -162.3%
* COCC(=O)N1CCC2(CC1)CN(c1ccccn1)CCO2.O=C(O)C(F)(F)F | A: -7%; D: 40.47%
* COc1ccc(CC2CN(Cc3cncn3C)CCO2)cc1 (centres unmarked) | A: 18.52%; B: 0%; C: 12.77%; D: -14.58%
* COCCC(=O)N1CCN(CC(C)C)c2nc(C)ccc2C1 | B: 3.448%; C: 22%
* CCc1nc(C2CCCN(C(=O)c3ccncc3)C2)no1 (centres unmarked) | A: -9.415%; B: 7.289%; C: 13.27%
* CCOC(=O)CNC(=O)C1OC(c2ccccc2)=NN1C(C)=O (centres unmarked) | A: -19.71%; B: 5.682%; C: 15.84%; D: -14.51%
* COCC(=O)NC[C@@]1(COc2cnccn2)C[C@@H](O)[C@@H](O)C1 | B: 3.483%; C: 10.81%
* CCOc1ccc2ccccc2c1CNCC1CCS(=O)(=O)C1.Cl (centres unmarked) | A: -7.781%; D: -19.23%
* Cc1cnc(N(C)Cc2cnc3ccccc3n2)nc1N(C)C | A: 19.05%; B: 4.663%; C: 27.96%; D: -4.739%
* Cc1csc(N2CCCN(C(=O)c3ccoc3C)CC2)n1 | A: -1.114%; B: 5.65%; C: 13.79%; D: 10.25%
* O=C(CNC(=O)C1CC1)NCC1CCCC1 | A: 11.28%; B: 3.665%; C: 10.34%; D: -49.3%
* Cc1nonc1C1CCCN1CCC(=O)N1CCc2ccccc2C1 (centres unmarked) | A: -2.582%; B: 9.677%; C: 21.21%; D: -41.9%
* O=C1CC(NS(=O)(=O)N2CCOCC2)CN1Cc1ccccc1 (centres unmarked) | A: -10.67%; B: 2.105%; C: 0%; D: 5.916%

3 of the entries, repeated:

| SMILES | A | B | C | D |
|---|---|---|---|---|
| `COCC(=O)N1CCC2(CC1)CN(c1ccccn1)CCO2.O=C(O)C(F)(F)F` | -7 | - | - | 40.47 |
| `O=C1CC(NS(=O)(=O)N2CCOCC2)CN1Cc1ccccc1` (centres unmarked) | -10.67 | 2.105 | 0 | 5.916 |
| `CCOc1ccc2ccccc2c1CNCC1CCS(=O)(=O)C1.Cl` (centres unmarked) | -7.781 | - | - | -19.23 |